Laboratory results published in patent US20150285806A1.
No constants are given. Whether binding was seen depends on the method and setting. Some binding calls cover weakened binding; strength is not graded here.

Protein sequences, listed by entry. Tags and fused reporters are not part of them. Lines headed by an entry give the natural chain unless they say otherwise; changes in a name come on top.
UniProt P51654: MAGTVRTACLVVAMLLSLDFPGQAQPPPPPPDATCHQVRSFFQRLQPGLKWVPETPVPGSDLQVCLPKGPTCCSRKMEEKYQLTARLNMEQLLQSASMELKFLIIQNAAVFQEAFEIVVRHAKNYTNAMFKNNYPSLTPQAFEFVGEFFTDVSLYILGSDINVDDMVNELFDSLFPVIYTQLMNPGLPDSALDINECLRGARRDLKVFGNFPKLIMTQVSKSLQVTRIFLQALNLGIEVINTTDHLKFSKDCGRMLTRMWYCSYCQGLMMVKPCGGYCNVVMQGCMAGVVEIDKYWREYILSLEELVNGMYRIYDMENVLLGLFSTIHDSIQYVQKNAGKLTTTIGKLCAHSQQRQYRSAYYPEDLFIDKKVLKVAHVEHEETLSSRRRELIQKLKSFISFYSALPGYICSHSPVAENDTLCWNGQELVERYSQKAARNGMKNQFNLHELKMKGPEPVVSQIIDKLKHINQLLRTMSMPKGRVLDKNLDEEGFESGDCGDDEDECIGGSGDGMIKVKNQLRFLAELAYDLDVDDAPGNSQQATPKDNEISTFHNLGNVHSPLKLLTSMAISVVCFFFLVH

B1: GT30 antibody (antibody, V domains shown)
VH: QVQLQQSGAELARPGASVKLSCRASGYTFTSYGISWMMQRTGQGLEWIGEIYPRSGITYYNEKFKGKATLTADKSSSTAYMQLSSLTSEDSAVYFCARDVSDGYLFPYWGQGTLVTVSA
VL: DIQMTQSPASLSASVGETVTITCRTSENIYSYLAWYQQKQGKSPQLLVYNAKTLPEGVPSRFSGSGSGTQFSLKINSLQPEDFGSYYCQHHYGTPPTFGGGTKLEIKR
B2: GT607 antibody (antibody, V domains shown)
VH: EVQLVESGGDVVRPGGSLKLSCAASGFTFSSYGMSWVRQLPDKRLEWVASVGNGGSYRYYPENLKGRFTISRDNTKNTLYLQISGLKSEDTAIYYCARRGAFPYFDVWGAGTTVTVSS
VL: B1 VL
B3: GT114 antibody (antibody, V domains shown)
VH: DVQLQESGPGLVKPSQSLSLTCTVTGYSITSDSAWNWIRQFPGNKLEWMAYIMYSGITSYNPSLKSRISITRDTAKNQFFLQLNSVTTEDSATYYCSRGYWYFDVWGAGTTVTVSS
VL: QIVLTQSPAIMSASLGEEITLTCSASSSVSYMHWYQQKSGTSPKLLIYSTSILASGVPSRFSGSGSGTFYSLTISSVEAEDAADYYCLQWITYRTFGGGTKLEIKR
B4: GT165 antibody (antibody, V domains shown)
VH: QVQLQQSGAELVGPGASVKISCKAFGYTFTNHHINWVKQRPGQGLDWIGYINPYNDYTNYNQKFKGKATLTVDKSSSTAYMELSSLTSEDSAVYYCARSDPAWFAYWGQGTLVTVSA
VL: DIQMTQSPSSLSASLGGKVTITCKASQDINKNIAWYQHKPGKGPRLLIWYTYTLQPGIPSRFSGSGSGRDYSFSISNLEPEDIATYYCLQYDNLPFTFGTGTKLEIKR

What follows are binders tested against free GPC3 (Homo sapiens (Human)) (UniProt P51654) (assay: antibody selection; method not described (prepared per WO2004/022739)).
With B1 the binding was “binds”. In the case of B2, the binding is reported as “binds”. For B3, the binding was “binds”. For B4, the binding was “binds”.
